Consider 20 molecules from patent US20220306751A1 (MYTHIC THERAPEUTICS, published 2022).

T1: CD123 protein (R&D Systems Catalog No. 301-R3-025/CF) (Homo sapiens (Human)) (UniProt P26951)
T1 sequence: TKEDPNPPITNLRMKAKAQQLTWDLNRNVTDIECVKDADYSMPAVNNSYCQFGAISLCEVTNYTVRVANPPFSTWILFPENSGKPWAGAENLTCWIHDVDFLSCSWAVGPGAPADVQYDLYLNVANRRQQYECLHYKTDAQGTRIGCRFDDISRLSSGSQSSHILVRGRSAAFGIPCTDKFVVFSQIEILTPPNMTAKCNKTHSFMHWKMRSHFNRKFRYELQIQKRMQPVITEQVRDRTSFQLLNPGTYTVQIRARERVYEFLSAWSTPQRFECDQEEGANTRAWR

B1: MYT5450 (antibody, V domains shown)
VH: EVQLLESGGGLVQPGGSLRLSCAVSDYSITSHYYWNWIRQAPGKKLEWMGYISYDGSNNYNPSLKNGRITISRDTSKNTFYLQMNSLRAEDTAVYYCARGEGFYFDSWGQGTLVTVSS
VL: EIVLTQSPGTLSLSPGERATLSCKSSQSLFFGSTQKNYLAWYQQKPGQAPRLLIYWASTRESGIPDRFSGSGSGTDFTLTISRLEPEDFAVYYCQQYYNYPWTFGQGTKLEIK
B2: MYT5477 (antibody, V domains shown)
VH: EVQLLESGGGLVQPGGSLRLSCAVSDYSITSGYYWNWIRQAPGKKLEWMGYISYDGSNNYNPSLKNGRITISRDTSKNTFYLQMNSLRAEDTAVYYCARGEGHYFDSWGQGTLVTVSS
VL: EIVLTQSPGTLSLSPGERATLSCKSSQSLFFGSTQKNYLAWYQQKPGQAPRLLIYWASTRESGIPDRFSGSGSGTDFTLTISRLEPEDFAVYYCQQYYNYPWTFGQGTKLEIK
B3: MYT5454 (antibody, V domains shown)
VH: EVQLLESGGGLVQPGGSLRLSCAVSDYSITSGYYWHWIRQAPGKKLEWMGYISYDGSNNYNPSLKNGRITISRDTSKNTFYLQMNSLRAEDTAVYYCARGEGFYFDSWGQGTLVTVSS
VL: EIVLTQSPGTLSLSPGERATLSCKSSQSLFFGSTQKNYLAWYQQKPGQAPRLLIYWASTRESGIPDRFSGSGSGTDFTLTISRLEPEDFAVYYCQQYYNYPWTFGQGTKLEIK
B4: MYT5452 (antibody, V domains shown)
VH: EVQLLESGGGLVQPGGSLRLSCAVSDYSITSGYHWNWIRQAPGKKLEWMGYISYDGSNNYNPSLKNGRITISRDTSKNTFYLQMNSLRAEDTAVYYCARGEGFYFDSWGQGTLVTVSS
VL: EIVLTQSPGTLSLSPGERATLSCKSSQSLFFGSTQKNYLAWYQQKPGQAPRLLIYWASTRESGIPDRFSGSGSGTDFTLTISRLEPEDFAVYYCQQYYNYPWTFGQGTKLEIK
B5: MYT5474 (antibody, V domains shown)
VH: EVQLLESGGGLVQPGGSLRLSCAVSDYSITSGYYWNWIRQAPGKKLEWMGYISYDGSNNYNPSLKNGRITISRDTSKNTFYLQMNSLRAEDTAVYYCARHEGFYFDSWGQGTLVTVSS
VL: EIVLTQSPGTLSLSPGERATLSCKSSQSLFFGSTQKNYLAWYQQKPGQAPRLLIYWASTRESGIPDRFSGSGSGTDFTLTISRLEPEDFAVYYCQQYYNYPWTFGQGTKLEIK
B6: MYT5447 (antibody, V domains shown)
VH: EVQLLESGGGLVQPGGSLRLSCAVSDYSHTSGYYWNWIRQAPGKKLEWMGYISYDGSNNYNPSLKNGRITISRDTSKNTFYLQMNSLRAEDTAVYYCARGEGFYFDSWGQGTLVTVSS
VL: EIVLTQSPGTLSLSPGERATLSCKSSQSLFFGSTQKNYLAWYQQKPGQAPRLLIYWASTRESGIPDRFSGSGSGTDFTLTISRLEPEDFAVYYCQQYYNYPWTFGQGTKLEIK
B7: MYT5453 (antibody, V domains shown)
VH: EVQLLESGGGLVQPGGSLRLSCAVSDYSITSGYYHNWIRQAPGKKLEWMGYISYDGSNNYNPSLKNGRITISRDTSKNTFYLQMNSLRAEDTAVYYCARGEGFYFDSWGQGTLVTVSS
VL: EIVLTQSPGTLSLSPGERATLSCKSSQSLFFGSTQKNYLAWYQQKPGQAPRLLIYWASTRESGIPDRFSGSGSGTDFTLTISRLEPEDFAVYYCQQYYNYPWTFGQGTKLEIK
B8: MYT5478 (antibody, V domains shown)
VH: EVQLLESGGGLVQPGGSLRLSCAVSDYSITSGYYWNWIRQAPGKKLEWMGYISYDGSNNYNPSLKNGRITISRDTSKNTFYLQMNSLRAEDTAVYYCARGEGFHFDSWGQGTLVTVSS
VL: EIVLTQSPGTLSLSPGERATLSCKSSQSLFFGSTQKNYLAWYQQKPGQAPRLLIYWASTRESGIPDRFSGSGSGTDFTLTISRLEPEDFAVYYCQQYYNYPWTFGQGTKLEIK
B9: MYT5472 (antibody, V domains shown)
VH: EVQLLESGGGLVQPGGSLRLSCAVSDYSITSGYYWNWIRQAPGKKLEWMGYISYDGSNNYNPSLKNGRITISRDTSKNTFYLQMNSLRAEDTAVYYCHRGEGFYFDSWGQGTLVTVSS
VL: EIVLTQSPGTLSLSPGERATLSCKSSQSLFFGSTQKNYLAWYQQKPGQAPRLLIYWASTRESGIPDRFSGSGSGTDFTLTISRLEPEDFAVYYCQQYYNYPWTFGQGTKLEIK
B10: MYT5475 (antibody, V domains shown)
VH: EVQLLESGGGLVQPGGSLRLSCAVSDYSITSGYYWNWIRQAPGKKLEWMGYISYDGSNNYNPSLKNGRITISRDTSKNTFYLQMNSLRAEDTAVYYCARGHGFYFDSWGQGTLVTVSS
VL: EIVLTQSPGTLSLSPGERATLSCKSSQSLFFGSTQKNYLAWYQQKPGQAPRLLIYWASTRESGIPDRFSGSGSGTDFTLTISRLEPEDFAVYYCQQYYNYPWTFGQGTKLEIK
B11: MYT5446 (antibody, V domains shown)
VH: EVQLLESGGGLVQPGGSLRLSCAVSDYHITSGYYWNWIRQAPGKKLEWMGYISYDGSNNYNPSLKNGRITISRDTSKNTFYLQMNSLRAEDTAVYYCARGEGFYFDSWGQGTLVTVSS
VL: EIVLTQSPGTLSLSPGERATLSCKSSQSLFFGSTQKNYLAWYQQKPGQAPRLLIYWASTRESGIPDRFSGSGSGTDFTLTISRLEPEDFAVYYCQQYYNYPWTFGQGTKLEIK
B12: MYT5443 (antibody, V domains shown)
VH: EVQLLESGGGLVQPGGSLRLSCAVHDYSITSGYYWNWIRQAPGKKLEWMGYISYDGSNNYNPSLKNGRITISRDTSKNTFYLQMNSLRAEDTAVYYCARGEGFYFDSWGQGTLVTVSS
VL: EIVLTQSPGTLSLSPGERATLSCKSSQSLFFGSTQKNYLAWYQQKPGQAPRLLIYWASTRESGIPDRFSGSGSGTDFTLTISRLEPEDFAVYYCQQYYNYPWTFGQGTKLEIK
B13: MYT5444 (antibody, V domains shown)
VH: EVQLLESGGGLVQPGGSLRLSCAVSHYSITSGYYWNWIRQAPGKKLEWMGYISYDGSNNYNPSLKNGRITISRDTSKNTFYLQMNSLRAEDTAVYYCARGEGFYFDSWGQGTLVTVSS
VL: EIVLTQSPGTLSLSPGERATLSCKSSQSLFFGSTQKNYLAWYQQKPGQAPRLLIYWASTRESGIPDRFSGSGSGTDFTLTISRLEPEDFAVYYCQQYYNYPWTFGQGTKLEIK
B14: MYT5455 (antibody, V domains shown)
VH: EVQLLESGGGLVQPGGSLRLSCAVSDYSITSGYYWNWIRQAPGKKLEWMGHISYDGSNNYNPSLKNGRITISRDTSKNTFYLQMNSLRAEDTAVYYCARGEGFYFDSWGQGTLVTVSS
VL: EIVLTQSPGTLSLSPGERATLSCKSSQSLFFGSTQKNYLAWYQQKPGQAPRLLIYWASTRESGIPDRFSGSGSGTDFTLTISRLEPEDFAVYYCQQYYNYPWTFGQGTKLEIK
B15: MYT5441 (antibody, V domains shown)
VH: EVQLLESGGGLVQPGGSLRLSCHVSDYSITSGYYWNWIRQAPGKKLEWMGYISYDGSNNYNPSLKNGRITISRDTSKNTFYLQMNSLRAEDTAVYYCARGEGFYFDSWGQGTLVTVSS
VL: EIVLTQSPGTLSLSPGERATLSCKSSQSLFFGSTQKNYLAWYQQKPGQAPRLLIYWASTRESGIPDRFSGSGSGTDFTLTISRLEPEDFAVYYCQQYYNYPWTFGQGTKLEIK
B16: MYT5442 (antibody, V domains shown)
VH: EVQLLESGGGLVQPGGSLRLSCAHSDYSITSGYYWNWIRQAPGKKLEWMGYISYDGSNNYNPSLKNGRITISRDTSKNTFYLQMNSLRAEDTAVYYCARGEGFYFDSWGQGTLVTVSS
VL: EIVLTQSPGTLSLSPGERATLSCKSSQSLFFGSTQKNYLAWYQQKPGQAPRLLIYWASTRESGIPDRFSGSGSGTDFTLTISRLEPEDFAVYYCQQYYNYPWTFGQGTKLEIK
B17: MYT5457 (antibody, V domains shown)
VH: EVQLLESGGGLVQPGGSLRLSCAVSDYSITSGYYWNWIRQAPGKKLEWMGYIHYDGSNNYNPSLKNGRITISRDTSKNTFYLQMNSLRAEDTAVYYCARGEGFYFDSWGQGTLVTVSS
VL: EIVLTQSPGTLSLSPGERATLSCKSSQSLFFGSTQKNYLAWYQQKPGQAPRLLIYWASTRESGIPDRFSGSGSGTDFTLTISRLEPEDFAVYYCQQYYNYPWTFGQGTKLEIK
B18: MYT5445 (antibody, V domains shown)
VH: EVQLLESGGGLVQPGGSLRLSCAVSDHSITSGYYWNWIRQAPGKKLEWMGYISYDGSNNYNPSLKNGRITISRDTSKNTFYLQMNSLRAEDTAVYYCARGEGFYFDSWGQGTLVTVSS
VL: EIVLTQSPGTLSLSPGERATLSCKSSQSLFFGSTQKNYLAWYQQKPGQAPRLLIYWASTRESGIPDRFSGSGSGTDFTLTISRLEPEDFAVYYCQQYYNYPWTFGQGTKLEIK
B19: MYT5458 (antibody, V domains shown)
VH: EVQLLESGGGLVQPGGSLRLSCAVSDYSITSGYYWNWIRQAPGKKLEWMGYISHDGSNNYNPSLKNGRITISRDTSKNTFYLQMNSLRAEDTAVYYCARGEGFYFDSWGQGTLVTVSS
VL: EIVLTQSPGTLSLSPGERATLSCKSSQSLFFGSTQKNYLAWYQQKPGQAPRLLIYWASTRESGIPDRFSGSGSGTDFTLTISRLEPEDFAVYYCQQYYNYPWTFGQGTKLEIK
B20: MYT5473 (antibody, V domains shown)
VH: EVQLLESGGGLVQPGGSLRLSCAVSDYSITSGYYWNWIRQAPGKKLEWMGYISYDGSNNYNPSLKNGRITISRDTSKNTFYLQMNSLRAEDTAVYYCAHGEGFYFDSWGQGTLVTVSS
VL: EIVLTQSPGTLSLSPGERATLSCKSSQSLFFGSTQKNYLAWYQQKPGQAPRLLIYWASTRESGIPDRFSGSGSGTDFTLTISRLEPEDFAVYYCQQYYNYPWTFGQGTKLEIK

No constants are given. Whether binding was seen depends on the method and setting. Some entries that bind do so weakly or less than the wild type.

The target of this test is T1, CD123 protein (R&D Systems Catalog No. 301-R3-025/CF) (Homo sapiens (Human)). The test can be described thus: BLI, IgG on anti-human Fc sensor, 50 nM CD123, pH 7.4 and pH 5.4.
B1: the binding entry was “binds”.

Consider B2, for which the binding result is “binds”.

B3: the binding entry is “binds”. In the case of B4 it was “binds”; in that of B5, “binds”. On to B6, for which the binding entry is on record as “binds”. Regarding B7, the binding result is “binds”. As for B8, the binding result is reported as “binds”.

As to B9, the binding result was “binds”.

As for B10, the binding result was “binds”. In the case of B11 it was “binds”. Consider B12, for which the binding entry is recorded as “binds”.

With B13, the binding result is “binds”.

B14: the binding result is “binds”. In the case of B15 it was “binds”; in that of B16, “binds”. On to B17, for which the binding result was “binds”. Then B18, with “binds”; and B19, with “binds”.

As for B20, the binding entry is listed as “binds”.
